{"source": "the supplement of paper PMC8090911", "note": "Counter-ions that a name gives are not always drawn. The list shows a part of the results. Repeats are few or missing, and single values can be far off.", "data": [{"system": "p95-ErbB2-MCF7", "test": "perinuclear lysosome accumulation (PNLA, size of LAMP2 puncta), robust Z-score vs plate median; higher = more perinuclear lysosome accumulation (reversal of invasive lysosome distribution)", "conditions": "5 µM; 24 h", "values": [{"smiles": "CC[C@H](C)C(=O)O[C@H]1C[C@H](O)C=C2C=C[C@H](C)[C@H](CC[C@@H](O)C[C@@H](O)CC(=O)O)[C@H]21", "note": "[Pravastatin]", "perinuclear lysosome accumulation": -0.0594}, {"smiles": "CC(C)(C)NCC(O)COc1cccc2c1CC(O)C(O)C2", "note": "(configuration not stated) [Nadolol]", "perinuclear lysosome accumulation": -0.999}, {"smiles": "Cc1cccc(C)c1NC(=O)CN1CCN(CCCC(c2ccc(F)cc2)c2ccc(F)cc2)CC1", "note": "[Lidoflazine]", "perinuclear lysosome accumulation": -0.73}, {"smiles": "CC(=O)O[C@]1(C(C)=O)CC[C@H]2[C@@H]3C=C(C)C4=CC(=O)CC[C@]4(C)[C@H]3CC[C@@]21C", "note": "[Megestrol acetate]", "perinuclear lysosome accumulation": 0.182}, {"smiles": "Nc1nnc(-c2cccc(Cl)c2Cl)c(N)n1", "note": "[Lamotrigine]", "perinuclear lysosome accumulation": 0.835}, {"smiles": "CC[C@@]1(O)C(=O)OCc2c1cc1n(c2=O)Cc2cc3c(CN(C)C)c(O)ccc3nc2-1", "note": "[Topotecan]", "perinuclear lysosome accumulation": -1.19}, {"smiles": "Nc1nc(=O)[nH]cc1F", "note": "[Flucytosine]", "perinuclear lysosome accumulation": 0.955}, {"smiles": "CN(Cc1ccc(C(C)(C)C)cc1)Cc1cccc2ccccc12", "note": "[Butenafine]", "perinuclear lysosome accumulation": 0.766}, {"smiles": "S=c1[nH]cnc2nc[nH]c12", "note": "[Mercaptopurine]", "perinuclear lysosome accumulation": -0.251}, {"smiles": "CCCCCCCCNC(C)C(O)c1ccc(SC(C)C)cc1", "note": "(configuration not stated) [Suloctidil]", "perinuclear lysosome accumulation": -1.65}, {"smiles": "COc1ccc2c3c1O[C@H]1C[C@@H](O)C=C[C@@]31CCN(C)C2", "note": "[Galanthamine hydrobromide]", "perinuclear lysosome accumulation": 0.0124}, {"smiles": "O=c1[nH]c(=O)n([C@H]2C[C@H](O)[C@@H](CO)O2)cc1C(F)(F)F", "note": "[Trifluridine]", "perinuclear lysosome accumulation": 1.2}, {"smiles": "Cc1nnc(SCC2=C(C(=O)O)N3C(=O)[C@@H](NC(=O)Cn4cnnn4)[C@H]3SC2)s1", "note": "[Cefazolin sodium salt]", "perinuclear lysosome accumulation": -0.794}, {"smiles": "CC(C)NC(=N)NC(=N)Nc1ccc(Cl)cc1", "note": "[Proguanil hydrochloride]", "perinuclear lysosome accumulation": 0.677}, {"smiles": "CC(C)Cn1cnc2c(N)nc3ccccc3c21", "note": "[Imiquimod]", "perinuclear lysosome accumulation": -0.401}, {"smiles": "NC(=O)N1c2ccccc2CC(=O)c2ccccc21", "note": "[Oxcarbazepine]", "perinuclear lysosome accumulation": 0.0882}, {"smiles": "Cc1cccc(Nc2ccncc2S(=O)(=O)NC(=O)NC(C)C)c1", "note": "[Torsemide]", "perinuclear lysosome accumulation": 0.0291}, {"smiles": "CC1(C)O[C@@H]2[C@@H](CO[C@@]3(COS(N)(=O)=O)OC(C)(C)O[C@@H]23)O1", "note": "[Topiramate]", "perinuclear lysosome accumulation": 0.161}, {"smiles": "COc1cc(NS(=O)(=O)c2ccc(N)cc2)nc(OC)n1", "note": "[Sulfadimethoxine]", "perinuclear lysosome accumulation": -0.373}, {"smiles": "C=N[C@@H](C(=O)N[C@@H]1C(=O)N2[C@@H]1SC(C)(C)[C@@H]2C(=O)O)c1ccccc1", "note": "[Metampicillin sodium salt]", "perinuclear lysosome accumulation": -0.547}, {"smiles": "CC[N+](CC)(CC(=O)Nc1c(C)cccc1C)Cc1ccccc1", "note": "[Denatonium benzoate]", "perinuclear lysosome accumulation": -2.14}, {"smiles": "CN(C)CCN(Cc1ccc(Cl)cc1)c1ccccn1", "note": "[Chloropyramine hydrochloride]", "perinuclear lysosome accumulation": -0.205}, {"smiles": "NS(=O)(=O)Cc1noc2ccccc12", "note": "[Zonisamide]", "perinuclear lysosome accumulation": -0.336}, {"smiles": "COc1ccc2c(c1)C(=O)N(CCc1ccc(S(=O)(=O)NC(=O)NC3CCCCC3)cc1)C(=O)C2(C)C", "note": "[Gliquidone]", "perinuclear lysosome accumulation": -1.93}, {"smiles": "COc1ccc([C@@H]2Sc3ccccc3N(CCN(C)C)C(=O)[C@@H]2OC(C)=O)cc1", "note": "[Diltiazem hydrochloride]", "perinuclear lysosome accumulation": -0.162}, {"smiles": "Cc1cn([C@H]2C[C@H](N=[N+]=[N-])[C@@H](CO)O2)c(=O)[nH]c1=O", "note": "[Zidovudine, AZT]", "perinuclear lysosome accumulation": 0.236}, {"smiles": "CC(C[N+](C)(C)C)OC(N)=O", "note": "(configuration not stated) [Bethanechol chloride]", "perinuclear lysosome accumulation": -1.32}, {"smiles": "COc1cccc(N(C)C(=S)Oc2ccc3c(c2)CCCC3)n1", "note": "[Liranaftate]", "perinuclear lysosome accumulation": -0.918}, {"smiles": "CCCNC(C)C(=O)Nc1c(C)csc1C(=O)OC", "note": "(configuration not stated) [Articaine hydrochloride]", "perinuclear lysosome accumulation": 0.282}, {"smiles": "NCCc1cc[nH]n1", "note": "[Betazole hydrochloride]", "perinuclear lysosome accumulation": 0.292}, {"smiles": "Cc1c(NC(C)C)c(=O)n(-c2ccccc2)n1C", "note": "[Isopyrin hydrochloride]", "perinuclear lysosome accumulation": -0.612}, {"smiles": "C[C@]12CCC(=O)C=C1C=C[C@@H]1[C@@H]2CC[C@@]2(C)[C@H]1CC[C@@]21CCC(=O)O1", "note": "[Canrenone]", "perinuclear lysosome accumulation": -2.56}, {"smiles": "Oc1cc(O)c2c(c1)O[C@H](c1ccc(O)c(O)c1)[C@@H](O)C2", "note": "(racemic) [Catechin-(+,-) hydrate]", "perinuclear lysosome accumulation": -0.501}, {"smiles": "NC(=O)OCC(O)COc1ccc(Cl)cc1", "note": "(configuration not stated) [Chlorphensin carbamate]", "perinuclear lysosome accumulation": -0.271}, {"smiles": "CC1(C)S[C@@H]2[C@H](NC(=O)[C@H](N)c3ccccc3)C(=O)N2[C@H]1C(=O)OC1OC(=O)c2ccccc21", "note": "(some centres not stated) [Talampicillin hydrochloride]", "perinuclear lysosome accumulation": 0.803}, {"smiles": "CN1C(C(=O)Nc2ccccn2)=C(O)c2ccccc2S1(=O)=O", "note": "[Piroxicam]", "perinuclear lysosome accumulation": -0.36}, {"smiles": "COCCOC(=O)C1=C(C)NC(C)=C(C(=O)OC(C)C)C1c1cccc([N+](=O)[O-])c1", "note": "(configuration not stated) [Nimodipine]", "perinuclear lysosome accumulation": -0.612}, {"smiles": "COC(=O)CCc1ccc(OCC(O)CNC(C)C)cc1", "note": "(configuration not stated) [Esmolol hydrochloride]", "perinuclear lysosome accumulation": -0.264}, {"smiles": "CNCCC=C1c2ccccc2C=Cc2ccccc21", "note": "[Norcyclobenzaprine]", "perinuclear lysosome accumulation": 0.59}, {"smiles": "NC(=O)c1ccc[n+]([C@@H]2O[C@H](COP(=O)([O-])OP(=O)(O)OC[C@H]3O[C@@H](n4cnc5c(N)ncnc54)[C@H](O)[C@@H]3O)[C@@H](O)[C@H]2O)c1", "note": "[Nadide]", "perinuclear lysosome accumulation": 0.883}, {"smiles": "Cc1ccc(C)c(OCCCC(C)(C)C(=O)O)c1", "note": "[Gemfibrozil]", "perinuclear lysosome accumulation": -0.166}, {"smiles": "CN1CCc2cccc3c2[C@H]1Cc1ccc(O)c(O)c1-3", "note": "[R(-) Apomorphine hydrochloride hemihydrate]", "perinuclear lysosome accumulation": 0.645}, {"smiles": "CCC(NC(C)C)C(O)c1ccc(O)c(O)c1", "note": "(configuration not stated) [Isoetharine mesylate salt]", "perinuclear lysosome accumulation": 0.463}, {"smiles": "CCC(Cc1c(I)cc(I)c(N)c1I)C(=O)O", "note": "(configuration not stated) [Iopanoic acid]", "perinuclear lysosome accumulation": -1.28}, {"smiles": "C[C@@H]1[C@H](O)[C@@H](C)/C=C/C=C/C=C/C=C/C=C/C=C/C=C/[C@H](O[C@@H]2O[C@H](C)[C@@H](O)[C@H](N)[C@@H]2O)C[C@@H]2O[C@](O)(C[C@@H](O)C[C@@H](O)[C@H](O)CC[C@@H](O)C[C@@H](O)CC(=O)O[C@H]1C)C[C@H](O)[C@H]2C(=O)O", "note": "[Amphotericin B]", "perinuclear lysosome accumulation": -0.116}, {"smiles": "CO[C@@]1(NC(=O)CSCC#N)C(=O)N2C(C(=O)O)=C(CSc3nnnn3C)CS[C@@H]21", "note": "[Cefmetazole sodium salt]", "perinuclear lysosome accumulation": 0.991}, {"smiles": "CC(C)NC[C@H](O)COc1ccc(CC(N)=O)cc1", "note": "[(S)-(-)-Atenolol]", "perinuclear lysosome accumulation": 0.0219}]}]}
